# Publication PMC12203907
# Read-outs that look alike come from different tables or passages of the source. These are yes or no findings as the source states them, for the method shown. Some entries that bind do so weakly or less than the wild type.
# B1: Ply2638A central amidase domain (domain or fragment, UniProt Q4ZD58 180-359)
# chain: LKHIYSNHIKGNKITAPKPSIQGVVIHNDYGSMTPSQYLPWLYARENNGTHVNGWASVYANRNEVLWYHPTDYVEWHCGNQWANANLIGFEVCESYPGRISDKLFLENEEATLKVAADVMKSYGLPVNRNTVRLHNEFFGTSCPHRSWDLHVGKGEPYTTTNINKMKDYFIKRIKHYYDG
# B2: Ply2638A full-length endolysin isoform (PlyFL) (enzyme, UniProt Q4ZD58 1-486)
# chain: MLTAIDYLTKKGWKISSDPRTYDGYPKNYGYRNYHENGINYDEFCGGYHRAFDVYSNETNDVPAVTSGTVIEANDYGNFGGTFVIRDANDNDWIYGHLQRGSMRFVVGDKVNQGDIIGLQGNSNYYDNPMSVHLHLQLRPKDAKKDEKSQVCSGLAMEKYDITNLNAKQDKSKNGSVKELKHIYSNHIKGNKITAPKPSIQGVVIHNDYGSMTPSQYLPWLYARENNGTHVNGWASVYANRNEVLWYHPTDYVEWHCGNQWANANLIGFEVCESYPGRISDKLFLENEEATLKVAADVMKSYGLPVNRNTVRLHNEFFGTSCPHRSWDLHVGKGEPYTTTNINKMKDYFIKRIKHYYDGGKLEVSKAATIKQSDVKQEVKKQEAKQIVKATDWKQNKDGIWYKAEHASFTVTAPEGIITRYKGPWTGHPQAGVLQKGQTIKYDEVQKFDGHVWVSWETFEGETVYMPVRTWDAKTGKVGKLWGEIK
# How the values were obtained:
# [1] = biological target: T1, Ply2638A full-length endolysin isoform (PlyFL) (Staphylococcus pseudintermedius phage φ2638A) (UniProt Q4ZD58); experiment: SPR; Biacore X, PlyFL immobilised by amine coupling on a CMD500L chip; analytes at 750 nM, 1 µM, 2.5 µM and 5 µM in PBS pH 7.4, 10 µl/min; no KD could be determined; both purified
# T1 sequence: B2 chain
# [2] = biological target: T2, Ply2638A central amidase domain (Staphylococcus pseudintermedius phage φ2638A) (UniProt Q4ZD58); experiment: SPR; Biacore X, amidase domain immobilised by amine coupling on a CMD500L chip; all analytes at 1 µM, amidase analyte at four concentrations, PBS pH 7.4; no KD could be determined; both purified
# T2 sequence: B1 chain
# [3] = biological target: T2, Ply2638A central amidase domain (Staphylococcus pseudintermedius phage φ2638A); experiment: as above; remark: listed apart in the source
Molecule,binding [1],binding [2],binding [3]
Ply2638A SH3b cell wall binding domain (from UniProt Q4ZD58 393-486) (domain or fragment),no binding (tested: 5 µM),no binding (tested: 1 µM),
Ply2638A M23 peptidase domain (from UniProt Q4ZD58 1-174) (domain or fragment),no binding (tested: 5 µM),no binding (tested: 1 µM),
B1,binds,,binds
B2,,,binds
